Assay results published in EP0339504A2 (priority 1988, dated 1989).
HELM strings list residues between dots; [ac] is acetyl, [am] amide, other brackets name non-standard units.

Test: peptide made by a vendor (peptide synthesis; p-alkoxybenzyl alcohol resins from Bachem Inc.; Pentafluorophenyl esters; hydroxybenzotriazole assisted or preformed symmetric a)
Conditions: whole synthesis, reverse phase chromatography on Pharmacia FPLC PepRPC HR5/5 column; FAB-MS

## PEPTIDE1{R.I.Q.R.G.P.G.R.A.F.V.T.I.G.K}$$$$V2.0
  purity (crude or final not stated): 74%
